According to the supplement of paper PMC12067093, “Discovery and optimisation of a covalent ligand for TRIM25 and its application to targeted protein ubiquitination” (Chemical Science, 2025):
This is one part of the list.

Protein sequences, listed by entry. Tags and fused reporters are not part of them. Lines headed by an entry give the natural chain unless they say otherwise; changes in a name come on top.
UniProt Q9Y3S2: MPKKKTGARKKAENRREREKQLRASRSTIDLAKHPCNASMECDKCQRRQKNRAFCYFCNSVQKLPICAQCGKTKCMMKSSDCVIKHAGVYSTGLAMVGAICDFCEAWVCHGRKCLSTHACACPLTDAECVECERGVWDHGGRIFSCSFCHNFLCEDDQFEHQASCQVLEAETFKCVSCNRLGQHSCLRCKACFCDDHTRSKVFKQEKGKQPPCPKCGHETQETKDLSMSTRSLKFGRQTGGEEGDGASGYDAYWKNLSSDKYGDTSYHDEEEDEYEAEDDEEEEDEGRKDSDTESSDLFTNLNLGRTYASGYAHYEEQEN
UniProt Q8N1G0: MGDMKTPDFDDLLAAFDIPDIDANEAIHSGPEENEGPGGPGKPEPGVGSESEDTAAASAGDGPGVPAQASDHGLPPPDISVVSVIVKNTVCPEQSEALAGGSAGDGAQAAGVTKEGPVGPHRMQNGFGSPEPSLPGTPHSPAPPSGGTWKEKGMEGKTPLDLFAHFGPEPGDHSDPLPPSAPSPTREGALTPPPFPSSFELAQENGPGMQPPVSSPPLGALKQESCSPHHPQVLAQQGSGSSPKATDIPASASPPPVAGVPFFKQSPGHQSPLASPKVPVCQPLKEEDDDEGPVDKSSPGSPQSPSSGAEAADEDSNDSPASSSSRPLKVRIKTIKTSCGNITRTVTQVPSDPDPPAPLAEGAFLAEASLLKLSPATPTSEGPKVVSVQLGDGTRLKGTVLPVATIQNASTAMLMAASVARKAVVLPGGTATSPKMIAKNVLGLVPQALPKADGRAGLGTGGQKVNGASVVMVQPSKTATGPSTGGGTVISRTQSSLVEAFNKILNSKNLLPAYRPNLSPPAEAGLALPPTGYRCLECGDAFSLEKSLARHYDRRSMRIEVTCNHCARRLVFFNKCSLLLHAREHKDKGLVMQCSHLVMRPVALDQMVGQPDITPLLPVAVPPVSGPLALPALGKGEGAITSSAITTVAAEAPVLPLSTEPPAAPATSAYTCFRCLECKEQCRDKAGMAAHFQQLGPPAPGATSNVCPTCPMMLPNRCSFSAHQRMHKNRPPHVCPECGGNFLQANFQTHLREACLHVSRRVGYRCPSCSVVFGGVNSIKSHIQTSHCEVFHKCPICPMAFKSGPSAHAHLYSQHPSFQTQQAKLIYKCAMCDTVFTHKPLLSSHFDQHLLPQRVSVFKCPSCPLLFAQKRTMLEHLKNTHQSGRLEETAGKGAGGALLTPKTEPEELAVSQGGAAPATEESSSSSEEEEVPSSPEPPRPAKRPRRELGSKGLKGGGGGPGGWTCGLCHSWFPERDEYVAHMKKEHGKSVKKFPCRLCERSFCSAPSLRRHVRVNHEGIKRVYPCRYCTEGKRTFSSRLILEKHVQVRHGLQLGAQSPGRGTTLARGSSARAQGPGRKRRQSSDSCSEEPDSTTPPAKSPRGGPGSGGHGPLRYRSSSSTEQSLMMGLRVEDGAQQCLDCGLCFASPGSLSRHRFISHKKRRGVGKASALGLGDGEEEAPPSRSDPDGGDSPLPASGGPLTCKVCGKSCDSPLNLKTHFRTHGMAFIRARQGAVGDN
UniProt Q14202: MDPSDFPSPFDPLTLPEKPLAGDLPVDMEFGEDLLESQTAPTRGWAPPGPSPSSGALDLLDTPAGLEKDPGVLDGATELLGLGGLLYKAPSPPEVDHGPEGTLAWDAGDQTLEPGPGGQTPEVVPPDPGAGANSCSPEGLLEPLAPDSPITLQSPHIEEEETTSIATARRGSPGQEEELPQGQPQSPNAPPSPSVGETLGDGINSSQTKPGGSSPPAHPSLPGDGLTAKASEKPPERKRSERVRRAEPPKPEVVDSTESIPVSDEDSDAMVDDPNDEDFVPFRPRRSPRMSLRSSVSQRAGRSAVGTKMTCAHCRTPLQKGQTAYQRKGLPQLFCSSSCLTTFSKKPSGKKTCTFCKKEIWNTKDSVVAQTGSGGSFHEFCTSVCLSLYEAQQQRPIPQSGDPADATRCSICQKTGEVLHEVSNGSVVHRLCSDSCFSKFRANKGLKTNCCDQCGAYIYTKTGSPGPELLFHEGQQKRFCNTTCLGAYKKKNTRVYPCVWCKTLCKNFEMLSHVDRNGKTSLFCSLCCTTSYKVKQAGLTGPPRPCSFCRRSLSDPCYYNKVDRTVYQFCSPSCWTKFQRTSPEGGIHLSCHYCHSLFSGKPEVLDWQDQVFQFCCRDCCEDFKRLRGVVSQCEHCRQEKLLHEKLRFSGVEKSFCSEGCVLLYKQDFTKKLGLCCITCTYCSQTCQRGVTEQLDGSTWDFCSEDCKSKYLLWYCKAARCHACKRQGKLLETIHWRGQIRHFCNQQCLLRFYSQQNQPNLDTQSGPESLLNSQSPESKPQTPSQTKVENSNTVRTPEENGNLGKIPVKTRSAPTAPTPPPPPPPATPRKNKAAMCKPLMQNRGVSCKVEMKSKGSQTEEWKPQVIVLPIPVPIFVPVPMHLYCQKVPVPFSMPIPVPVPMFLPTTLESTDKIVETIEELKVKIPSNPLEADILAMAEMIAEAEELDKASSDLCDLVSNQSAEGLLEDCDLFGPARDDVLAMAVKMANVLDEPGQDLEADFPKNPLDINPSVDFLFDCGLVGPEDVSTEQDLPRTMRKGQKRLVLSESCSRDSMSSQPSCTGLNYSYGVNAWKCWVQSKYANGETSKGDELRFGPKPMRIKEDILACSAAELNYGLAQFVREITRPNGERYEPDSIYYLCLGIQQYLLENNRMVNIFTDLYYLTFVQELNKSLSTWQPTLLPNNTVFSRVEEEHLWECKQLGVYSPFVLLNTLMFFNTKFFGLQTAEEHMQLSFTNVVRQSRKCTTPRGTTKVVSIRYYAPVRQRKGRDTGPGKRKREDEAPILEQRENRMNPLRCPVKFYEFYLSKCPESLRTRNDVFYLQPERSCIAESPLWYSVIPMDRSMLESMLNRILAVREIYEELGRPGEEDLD
UniProt Q96ME7: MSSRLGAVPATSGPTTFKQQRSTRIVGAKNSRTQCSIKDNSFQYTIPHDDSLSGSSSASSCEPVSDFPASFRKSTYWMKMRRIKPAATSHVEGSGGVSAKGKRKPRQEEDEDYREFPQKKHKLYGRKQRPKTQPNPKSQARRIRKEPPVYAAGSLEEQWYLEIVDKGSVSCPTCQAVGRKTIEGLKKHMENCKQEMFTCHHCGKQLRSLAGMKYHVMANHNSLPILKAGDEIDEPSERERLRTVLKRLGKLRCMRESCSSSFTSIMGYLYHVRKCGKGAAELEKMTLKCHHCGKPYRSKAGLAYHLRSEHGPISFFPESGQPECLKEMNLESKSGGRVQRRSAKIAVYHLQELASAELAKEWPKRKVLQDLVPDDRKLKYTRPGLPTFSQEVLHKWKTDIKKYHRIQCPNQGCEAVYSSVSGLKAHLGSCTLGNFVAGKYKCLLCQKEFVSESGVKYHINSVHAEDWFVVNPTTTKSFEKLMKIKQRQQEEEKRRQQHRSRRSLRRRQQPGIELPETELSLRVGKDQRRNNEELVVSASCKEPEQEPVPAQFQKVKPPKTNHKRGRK
UniProt Q14966: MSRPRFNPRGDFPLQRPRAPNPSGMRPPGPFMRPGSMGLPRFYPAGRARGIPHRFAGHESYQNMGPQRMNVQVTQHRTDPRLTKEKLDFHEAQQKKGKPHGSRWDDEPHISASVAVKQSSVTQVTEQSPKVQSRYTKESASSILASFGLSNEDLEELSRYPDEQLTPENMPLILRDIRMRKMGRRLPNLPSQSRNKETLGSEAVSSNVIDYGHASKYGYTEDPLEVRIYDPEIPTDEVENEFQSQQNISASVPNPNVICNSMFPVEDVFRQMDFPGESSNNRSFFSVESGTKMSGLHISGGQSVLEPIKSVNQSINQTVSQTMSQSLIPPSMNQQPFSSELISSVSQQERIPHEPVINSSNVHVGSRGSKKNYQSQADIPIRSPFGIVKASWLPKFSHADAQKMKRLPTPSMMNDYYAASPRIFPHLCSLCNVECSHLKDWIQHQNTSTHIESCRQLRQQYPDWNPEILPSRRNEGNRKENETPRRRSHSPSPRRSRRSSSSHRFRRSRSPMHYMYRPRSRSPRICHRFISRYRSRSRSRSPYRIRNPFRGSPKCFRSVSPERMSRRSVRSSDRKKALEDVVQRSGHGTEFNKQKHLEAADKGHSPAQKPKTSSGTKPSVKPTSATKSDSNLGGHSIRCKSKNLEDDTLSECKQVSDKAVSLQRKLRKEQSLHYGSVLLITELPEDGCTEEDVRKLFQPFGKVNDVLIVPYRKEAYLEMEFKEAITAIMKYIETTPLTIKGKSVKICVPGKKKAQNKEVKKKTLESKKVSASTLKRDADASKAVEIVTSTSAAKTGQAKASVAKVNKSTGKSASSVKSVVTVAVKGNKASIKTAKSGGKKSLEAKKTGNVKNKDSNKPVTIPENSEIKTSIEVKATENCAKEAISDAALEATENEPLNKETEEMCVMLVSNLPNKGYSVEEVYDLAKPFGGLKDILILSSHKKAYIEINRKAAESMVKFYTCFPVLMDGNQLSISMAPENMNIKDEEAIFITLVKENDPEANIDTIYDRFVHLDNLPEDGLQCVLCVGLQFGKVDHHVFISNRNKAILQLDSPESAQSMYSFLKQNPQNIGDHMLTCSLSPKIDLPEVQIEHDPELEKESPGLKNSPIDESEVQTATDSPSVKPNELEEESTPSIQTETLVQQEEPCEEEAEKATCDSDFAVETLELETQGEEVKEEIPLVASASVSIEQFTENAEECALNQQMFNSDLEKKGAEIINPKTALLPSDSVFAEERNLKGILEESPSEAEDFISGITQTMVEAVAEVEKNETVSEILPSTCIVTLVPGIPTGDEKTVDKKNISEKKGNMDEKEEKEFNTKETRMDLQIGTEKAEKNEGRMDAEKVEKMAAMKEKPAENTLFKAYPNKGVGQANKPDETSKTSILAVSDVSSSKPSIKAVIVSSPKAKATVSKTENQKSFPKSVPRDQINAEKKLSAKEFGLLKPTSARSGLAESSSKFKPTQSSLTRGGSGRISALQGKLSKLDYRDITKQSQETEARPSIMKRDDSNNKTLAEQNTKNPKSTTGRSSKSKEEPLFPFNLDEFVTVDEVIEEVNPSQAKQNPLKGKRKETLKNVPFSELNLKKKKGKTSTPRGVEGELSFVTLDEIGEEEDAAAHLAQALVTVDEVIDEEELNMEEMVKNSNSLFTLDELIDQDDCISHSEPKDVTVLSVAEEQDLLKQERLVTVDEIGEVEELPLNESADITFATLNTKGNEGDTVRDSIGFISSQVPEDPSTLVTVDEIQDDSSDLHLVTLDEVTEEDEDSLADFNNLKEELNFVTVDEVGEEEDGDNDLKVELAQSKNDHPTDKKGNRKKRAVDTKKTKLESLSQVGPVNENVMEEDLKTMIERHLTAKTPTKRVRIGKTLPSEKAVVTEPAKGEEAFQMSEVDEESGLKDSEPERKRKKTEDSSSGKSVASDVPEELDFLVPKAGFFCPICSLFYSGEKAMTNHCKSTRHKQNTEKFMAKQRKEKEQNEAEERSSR
UniProt Q15973: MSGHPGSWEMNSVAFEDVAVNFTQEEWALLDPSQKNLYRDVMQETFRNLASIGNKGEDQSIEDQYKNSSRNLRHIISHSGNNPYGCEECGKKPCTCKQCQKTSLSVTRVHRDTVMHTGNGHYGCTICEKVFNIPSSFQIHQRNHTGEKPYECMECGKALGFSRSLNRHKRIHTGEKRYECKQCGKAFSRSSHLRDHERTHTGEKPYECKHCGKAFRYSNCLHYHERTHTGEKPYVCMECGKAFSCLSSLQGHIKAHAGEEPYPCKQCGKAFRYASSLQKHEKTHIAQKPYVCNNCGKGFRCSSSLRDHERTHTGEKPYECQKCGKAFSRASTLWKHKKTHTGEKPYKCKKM
UniProt O43670: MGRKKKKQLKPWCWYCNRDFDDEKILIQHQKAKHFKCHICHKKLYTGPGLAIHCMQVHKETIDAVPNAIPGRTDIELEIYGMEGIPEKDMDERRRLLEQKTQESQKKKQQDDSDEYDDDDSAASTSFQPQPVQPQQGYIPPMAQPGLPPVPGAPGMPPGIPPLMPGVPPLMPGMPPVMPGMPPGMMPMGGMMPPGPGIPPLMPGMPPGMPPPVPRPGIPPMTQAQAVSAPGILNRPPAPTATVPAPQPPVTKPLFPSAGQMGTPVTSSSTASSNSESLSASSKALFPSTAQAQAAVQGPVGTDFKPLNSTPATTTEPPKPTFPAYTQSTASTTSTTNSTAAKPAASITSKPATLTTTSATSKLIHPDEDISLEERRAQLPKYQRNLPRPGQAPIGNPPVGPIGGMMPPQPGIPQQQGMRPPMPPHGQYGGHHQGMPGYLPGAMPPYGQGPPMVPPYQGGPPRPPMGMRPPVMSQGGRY

Compound: Cc1cc(ccc1-c1ccccc1)C(=O)N1CCCN(CC1)C(=O)CCl [compound 10]
Assay: probe-labelled cysteine peptide fold change vs DMSO (competition) (log2 fold change); higher = less target engagement (more negative = stronger competition)
Conditions: THP-1, incubation time: 4 h
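Also: competitive profiling in live THP-1 cells: cysteine peptides tagged with an iodoacetamide desthiobiotin (IA-DTB) probe, intensity after compound treatment relative to DMSO-treated cells.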

Row | Target | probe-labelled cysteine peptide fold change (10 µM) | probe-labelled cysteine peptide fold change (50 µM)
1 | ZNF330_Q9Y3S2_216_CGHETQETK (UniProt Q9Y3S2) | 0.0434 | -0.167
2 | ZNF687_Q8N1G0_576_CSLLLHAR (UniProt Q8N1G0) | -0.0325 | 0.126
3 | ZMYM3_Q14202_484_FCNTTCLGAYK (UniProt Q14202) | -0.138 | -0.789
4 | ZNF280D_Q6N043_449_NLLCPFCLK (UniProt Q6N043) | -0.0867 | -0.468
5 | ZNF644_Q9H582_588_SATYICK (UniProt Q9H582) | 0.232 | -0.113
6 | ZNF14_P17017_42_NLVCLGK (UniProt P17017) | 0.0787 | 0.229
7 | ZNF143_P52747_274_SHTGDRPYQCEHAGCGK (UniProt P52747) | 0.107 | 0.555
8 | ZMYM3_Q14202_747_HFCNQQCLLR (UniProt Q14202) | 0.0032 | -0.384
9 | ZNF512_Q96ME7_171+174_GSVSCPTCQAVGR (UniProt Q96ME7) | 0.0329 | -0.62
10 | ZNF687_Q8N1G0_566_IEVTCNHCAR (UniProt Q8N1G0) | -0.156 | 0.186
11 | ZNF638_Q14966_428+431_IFPHLCSLCNVECSHLK (UniProt Q14966) | 0.156 | 0.402
12 | ZNF521_Q96K83_990_SLDTGNCR (UniProt Q96K83) | 0.112 | 0.0963
13 | ZNF746_Q6NUN9_385_CKPPVGLNPR (UniProt Q6NUN9) | 0.209 | -0.409
14 | ZNF124_Q15973_292+295_THIAQKPYVCNNCGK (UniProt Q15973) | -0.0537 | -0.431
15 | ZFR_Q96KR1_391_CELCDVSCTGADAYAAHIR (UniProt Q96KR1) | 0.0706 | 0.173
16 | ZMYM2_Q9UBW7_331_VTCANCK (UniProt Q9UBW7) | -0.187 | -0.26
17 | ZFPL1_O95159_16_KVTNLFCFEHR (UniProt O95159) | 0.163 | -0.151
18 | ZNF512_Q96ME7_445_CLLCQK (UniProt Q96ME7) | -0.0136 | 0.148
19 | ZNF330_Q9Y3S2_109_HAGVYSTGLAMVGAICDFCEAWVCHGR (UniProt Q9Y3S2) | 0.111 | 0.315
20 | ZFP91_Q96JP5_313+318_CEMEGCGTVLAHPR (UniProt Q96JP5) | -0.151 | -0.409
21 | ZMYND11_Q15326_249+258_DTCHELDELQLCK (UniProt Q15326) | 0.32 | -0.0828
22 | ZNF512_Q96ME7_258_ESCSSSFTSIMGYLYHVR (UniProt Q96ME7) | 0.118 | 0.185
23 | ZNF106_Q9H2Y7_1238_EISDSCPVYPVITAR (UniProt Q9H2Y7) | -0.0437 | -0.154
24 | ZNF24_P17028_233_YGETCFPK (UniProt P17028) | -0.021 | -0.211
25 | ZMYND8_Q9ULU4_1062_SCTQSATAPQQEADAEVNTETLNK (UniProt Q9ULU4) | 0.0332 | -0.0292
26 | ZNF638_Q14966_688_EQSLHYGSVLLITELPEDGCTEEDVR (UniProt Q14966) | 0.0192 | 0.11
27 | ZNF207_O43670_54_KLYTGPGLAIHCMQVHK (UniProt O43670) | -0.0865 | -0.652
28 | ZMYM4_Q5VZL5_1480_CSESVK (UniProt Q5VZL5) | -0.156 | -0.0857
